ChEMBL document CHEMBL3396966, “In vitro studies of antimicrobial activity of Gly-His-Lys conjugates as potential and promising candidates for therapeutics in skin and tissue infections” (2015)

Tested on: Candida albicans
Assay: Antifungal activity against Candida albicans after 16 to 20 hrs by broth micro-dilution method
Type: functional, organism-based

NYSTATIN
MIC: 0.97 µg/mL
